Results from US6410329.
Protein sequences can lack the tags named with them.

Target: T1, VirD2 (Agrobacterium tumefaciens) (UniProt P06668)
T1 sequence (looked up, limits assumed): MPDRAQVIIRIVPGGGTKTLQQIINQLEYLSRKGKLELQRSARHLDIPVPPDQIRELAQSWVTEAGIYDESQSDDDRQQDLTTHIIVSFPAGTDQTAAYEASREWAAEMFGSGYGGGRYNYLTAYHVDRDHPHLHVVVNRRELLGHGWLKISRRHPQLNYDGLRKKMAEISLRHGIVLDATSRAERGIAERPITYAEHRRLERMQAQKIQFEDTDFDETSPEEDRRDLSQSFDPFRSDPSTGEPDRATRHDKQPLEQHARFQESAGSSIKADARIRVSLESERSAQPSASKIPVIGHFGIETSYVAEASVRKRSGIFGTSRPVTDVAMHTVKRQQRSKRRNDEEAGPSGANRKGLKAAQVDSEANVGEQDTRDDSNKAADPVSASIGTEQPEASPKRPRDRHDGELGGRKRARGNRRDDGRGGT
Experiment: activity in cells
Conditions: tobacco, VirD2 alone; not significant; protein in cells; protein details: pTiA6; variant of T-DNA right border duplex, pRB(+)Luc; only the site is given; counted as no effect

ATCCGGCAGGATATATACCGTTGTAATTCTGCA (double strand) [T-DNA right border reversed, pRB(-)Luc]
activity on this sequence (% of control luciferase): 85
